The values that follow come from patent publication US20180111972A1.

The target in assay [1] is human VEGFR on human umbilical vein endothelial cells (HUVECs) (human) (UniProt P35968). The experiment in a line: flow cytometry titration of the soluble FLAG-tagged protein on HUVECs, anti-FLAG detection.
The target of assay [2] is soluble PDGFRβ (Fc or His format not stated for the experiment) (human) (UniProt P09619). The experiment in a line: yeast surface display, flow cytometry with soluble receptor.
Assay [3] has the same target. The experiment in a line: yeast surface display, flow cytometry dot plot: soluble receptor bound (FL1) against surface expression (FL2); receptor concentration not given.

Results are given in words; binding and its absence hold for the method and conditions named. Some results given as binding are weak or reduced against the parent protein; the word gives no strength. For some assays here: Tags and fused reporters may be left off the sequences shown.

B1: PVAM-S (PV R32A), soluble, FLAG and hexahistidine tags (designed binder)
chain: DYKDDDDKIAEPAMIAECHPIETLVDILQEYPDEIGYIFKPSCVPLMRCGGCCNNRNVQCRPTEESNITMQIMRIKPHRGQHIGEMSFLQHNKCRCETVAAGSTSGSGKSSEGKGEVVKFMDVYQRSYCKTRTEVFEISRRLIDATNANFLVWPPCVEVQRCSGCCNHEGLECVPTQVQLRPVQVRKIEFVRKKPIFKKATVTLEDHLACECRPKKDHHHHHH
As to B1, in assay [1], the binding result was “binds”.

B2: scVEGFwt, single-chain version of VEGF-A, soluble, FLAG and hexahistidine tags (ligand)
chain: DYKDDDDKEVVKFMDVYQRSYCHPIETLVDIFQEYPDEIEYIFKPSCVPLMRCGGCCNDEGLECVPTEESNITMQIMRIKPHQGQHIGEMSFLQHNKCECRPKKDGSTSGSGKSSEGKGEVVKFMDVYQRSYCHPIETLVDIFQEYPDEIEYIFKPSCVPLMRCGGCCNDEGLECVPTEESNITMQIMRIKPHQGQHIGEMSFLQHNKCECRPKKDHHHHHH
Take B2: in assay [1], the binding entry is “binds”.

B3: PV1 PDGF/VEGF hybrid construct, yeast-displayed (designed binder)
chain: IAEPAMIAECKTRETLVDIFQEYPDEIEYIFKPSCVPLMRCSGCCNNRNVQCRPTEESNITMQIMRIKPHQGQHIGEMSFLQHLACKCETVAAGSTSGSGKSSEGKGEVVKFMDVYQRSYCHPITEVFEISRRLIDRTNANFLVWPPCVEVQRCGGCCNDEGLECVPTQVQLRPVQVRKIEIVRKKPIFKKATVTLEDHNKCECRPKKD
Consider B3, for which the binding entry in assay [2] and in assay [3] was “binds” throughout.

B4: PV8 PDGF/VEGF hybrid construct, yeast-displayed (designed binder)
chain: IAEPAMIAECKTIETLVDIFQEYPDEIEYIFKPSCVPLMRCSGCCNNRNVQCRPTEESNITMQIMRIKPHQGQHIGEMSFLQHLACKCETVAAGSTSGSGKSSEGKGEVVKFMDVYQRSYCHPRTEVFEISRRLIDRTNANFLVWPPCVEVQRCGGCCNDEGLECVPTQVQLRPVQVRKIEIVRKKPIFKKATVTLEDHNKCECRPKKD
Regarding B4, the binding entry in assay [2] and in assay [3] was “binds” each time.

B5: PV7 PDGF/VEGF hybrid construct, yeast-displayed (designed binder)
chain: IAEPAMIAECKTRETLVDIFQEYPDEIEYIFKPSCVPLMRCSGCCNNRNVQCRPTEESNITMQIMRIKPHQGQHIGEMSFLQHNKCKCETVAAGSTSGSGKSSEGKGEVVKFMDVYQRSYCHPITEVFEISRRLIDRTNANFLVWPPCVEVQRCGGCCNDEGLECVPTQVQLRPVQVRKIEIVRKKPIFKKATVTLEDHLACECRPKKD
Consider B5, for which the binding result in assay [2] and in assay [3] was “binds” each time.
